Measurements published in PubChem BioAssay AID192 (DTP/NCI, 2004).
The list is a part of this screen's results and no random one: it is rich in T/C values a quarter to a half above the control, in often repeated tests (any T/C) and in doses without a T/C. Further doses and runs are listed elsewhere. T/C: endpoint of the treated group in % of that of the vehicle group. Some doses have a count of surviving animals in place of a T/C: the source holds a T/C of zero for them, seemingly a mark for toxic or unscored doses. Some doses without a T/C left all or most animals alive at the check, yet need not have been tolerated: survival well below the control is almost never listed, so the zero probably covers shortened survival too. Survivors were counted at the toxicity check, usually on the fifth day, unless a day is given; later deaths do not show. Schedules are NCI's codes, taken here to give the interval after Q, in days (D) or hours (H), and the number of doses after X. For survival time, this PubChem deposit counts one and a half times the control or more as active, and values a quarter to a half above the control carry no call in these data; other NCI protocols may use other cut-offs.

System: BDF1 mice, B16 melanoma ip, median survival T/C
Experiment: NCI In Vivo Anticancer Drug Screen. Data for tumor model B16 Melanoma (intraperitoneal) in B6D2F1 (BDF1) mice
Conditions: T/C endpoint: median survival time, higher T/C = longer survival
Outline: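 Mice with transplantable tumors; drug vs vehicle groups; endpoint survival or tumor size; value = T/C.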

[1] = dose: 100.0 mg/kg/injection, schedule: Q01DX009 (ip), vehicle: saline with Tween-80
[2] = dose: 100.0 mg/kg/injection, schedule: Q01DX009 (ip), vehicle: saline
[3] = dose: 400.0 mg/kg/injection, schedule: Q01DX009 (ip), vehicle: Klucel (hydroxypropylcellulose) (HPC)

COC(=O)C[C@](O)(CCCC(C)(C)O)C(=O)O[C@@H]1C(OC)=C[C@]23CCCN2CCc2cc4c(cc2[C@H]13)OCO4
T/C (dose: 0.06 mg/kg/injection, schedule: Q01DX009 (ip), vehicle: saline sonified): 125 % of control | T/C (dose: 0.5 mg/kg/injection, schedule: Q01DX009 (ip), vehicle: saline sonified): 125 % of control | T/C (dose: 0.5 mg/kg/injection, schedule: Q01DX009 (ip), vehicle: saline with Tween-80): 126 % of control | survivor count (dose: 2.0 mg/kg/injection, schedule: Q01DX009 (ip), vehicle: saline with Tween-80): 6 of 6 | survivor count (dose: 4.0 mg/kg/injection, schedule: Q01DX009 (ip), vehicle: saline with Tween-80): 2 of 6 | survivor count (dose: 4.08 mg/kg/injection, schedule: Q04DX003 (ip), vehicle: saline): 5 of 8

NC(=S)N/N=C/c1ccc(OC(F)(F)F)cn1
survivor count (dose: 25.0 mg/kg/injection, schedule: Q01DX009 (ip), vehicle: saline with Tween-80): 7 of 10

CCCCCCCCCCCCCCCCN(C)S(=O)(=O)c1ccc2sc(SC)[n+](C)c2c1 (tested in a mixture with another compound)
survivor count (dose: 50.0 mg/kg/injection, schedule: Q04DX003 (ip), vehicle: saline with Tween-80): 8 of 8 | survivor count (dose: 100.0 mg/kg/injection, schedule: Q04DX003 (ip), vehicle: saline with Tween-80): 10 of 10 | survivor count (dose: 200.0 mg/kg/injection, schedule: Q04DX003 (ip), vehicle: saline with Tween-80): 10 of 10 | survivor count (dose: 400.0 mg/kg/injection, schedule: Q04DX003 (ip), vehicle: saline with Tween-80): 10 of 10

Nc1nc(=S)c2ncn(C3OC(COC(=O)c4ccccc4)C(OC(=O)c4ccccc4)C3OC(=O)c3ccccc3)c2[nH]1 (centres undefined)
T/C (dose: 12.5 mg/kg/injection, schedule: Q01DX009 (ip), vehicle: saline with Tween-80): 125 % of control | survivor count (dose: 50.0 mg/kg/injection, schedule: Q01DX009 (ip), vehicle: saline with Tween-80): 10 of 10 | survivor count [1]: 10 of 10

CC(C)NNC(=O)c1ccncc1
survivor count [2]: 10 of 10 | survivor count (dose: 400.0 mg/kg/injection, schedule: Q01DX009 (ip), vehicle: saline): 10 of 10

CS(=O)(=O)Nc1ccc(Nc2c3ccccc3nc3cc(Cl)ccc23)cc1
T/C (dose: 0.75 mg/kg/injection, schedule: Q01DX009 (ip), vehicle: saline with Tween-80): 125 % of control | T/C (dose: 1.5 mg/kg/injection, schedule: Q01DX009 (ip), vehicle: saline with Tween-80): 130 % of control | survivor count (dose: 18.8 mg/kg/injection, schedule: Q01DX009 (ip), vehicle: saline sonified): 5 of 6 | survivor count (dose: 37.5 mg/kg/injection, schedule: Q01DX009 (ip), vehicle: saline sonified): 4 of 6 | survivor count (dose: 75.0 mg/kg/injection, schedule: Q01DX009 (ip), vehicle: saline sonified): 6 of 6 | survivor count (dose: 150.0 mg/kg/injection, schedule: Q01DX001 (ip), vehicle: saline sonified): 6 of 6 | survivor count (dose: 150.0 mg/kg/injection, schedule: Q01DX009 (ip), vehicle: saline sonified): 4 of 6 | survivor count (dose: 300.0 mg/kg/injection, schedule: Q01DX001 (ip), vehicle: saline sonified): 5 of 6

COc1cc2c(c3c1c(=O)c1ccccc1n3C)C=CC(C)(C)O2
survivor count [1]: 5 of 6 | survivor count (dose: 200.0 mg/kg/injection, schedule: Q01DX009 (ip), vehicle: saline with Tween-80): 4 of 6

CC(=O)Oc1c(C)c2c(O)c3c1C1=C(OCOC1=C(C)C3=O)C(C)=CC(C)(O)C(O)C(C)C(O)C1C(=O)OC(C(C)/C=C\C=C(C)C(=O)N2)C(C)C1O (centres undefined)
survivor count (dose: 25.0 mg/kg/injection, schedule: Q01DX009 (ip), vehicle: saline): 10 of 10 | survivor count [2]: 10 of 10 | survivor count (dose: 200.0 mg/kg/injection, schedule: Q01DX009 (ip), vehicle: saline): 10 of 10

CN(C)CC/C=C1\c2ccccc2C(C)(C)c2ccc(Cl)cc21
survivor count [1]: 4 of 6

Oc1ccc(C2(c3ccc(O)cc3)CCCCC2)cc1
survivor count (dose: 25.0 mg/kg/injection, schedule: Q01DX009 (ip), vehicle: acetone): 7 of 10 | survivor count (dose: 100.0 mg/kg/injection, schedule: Q01DX009 (ip), vehicle: acetone): 9 of 10

CCCCCC(=O)c1ccc(O)cc1O
survivor count (dose: 50.0 mg/kg/injection, schedule: Q01DX009 (ip), vehicle: gum acacia): 10 of 10

O=C(Nc1ccc(F)cc1)Nc1nccs1
survivor count [3]: 6 of 10

[Cl][Pt][Cl].[NH-]C(CO)C(=O)O (centres undefined)
T/C (dose: 6.25 mg/kg/injection, schedule: Q01DX009 (ip), vehicle: water): 131 % of control | T/C (dose: 25.0 mg/kg/injection, schedule: Q01DX009 (ip), vehicle: water): 138 % of control | survivor count (dose: 50.0 mg/kg/injection, schedule: Q01DX009 (ip), vehicle: water): 10 of 10 | survivor count (dose: 100.0 mg/kg/injection, schedule: Q01DX009 (ip), vehicle: water): 0 of 10

O=C(C(=O)c1cc(Br)ccc1O)c1cc(Br)ccc1O
survivor count [3]: 10 of 10
